Assay results as given in the supplement of paper PMC8728848.
The other results are listed elsewhere or left out.

Key:
Assay in all cases: glycan array binding signal (z-score within array); higher = stronger binding
Settings in all cases: glycan notation: IUPAC condensed, linker removed
[1] = target: Glc(b1-6)Glc
Summary of the method: (§1)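 Columns mapping to the same glycan were averaged after glycan names were converted to IUPAC-condensed notation. The data come from 3228 arrays in the Consortium for Functional Glycomics database, limited to those with an available protein sequence. Binding is reported as a within-array Z-score averaged across arrays of one protein sequence and across linkers.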

[2] = target: GlcA(b1-3)Gal
Summary of the method: as §1

[3] = target: GlcA(b1-3)GlcNAc
Summary of the method: as §1

[4] = target: GlcA(b1-6)Gal
Summary of the method: as §1

[5] = target: GlcA3S(b1-3)Gal(b1-4)GlcNAc(b1-2)Man
Summary of the method: as §1

[6] = target: GlcA3S(b1-3)Gal(b1-4)GlcNAc(b1-3)Gal(b1-4)Glc
Summary of the method: as §1

[7] = target: GlcNAc(a1-3)Gal(b1-4)GlcNAc
Summary of the method: as §1

[8] = target: GlcNAc(a1-4)Gal(b1-3)GlcNAc
Summary of the method: as §1

[9] = target: GlcNAc(a1-4)Gal(b1-4)GalNAc
Summary of the method: as §1

[10] = target: GlcNAc(a1-4)Gal(b1-4)GlcNAc
Summary of the method: as §1

[11] = target: GlcNAc(a1-4)Gal(b1-4)GlcNAc(b1-3)Gal(b1-4)Glc
Summary of the method: as §1

[12] = target: GlcNAc(a1-4)Gal(b1-4)GlcNAc(b1-3)Gal(b1-4)GlcNAc
Summary of the method: as §1

[13] = target: GlcNAc(a1-4)Gal(b1-4)GlcNAc(b1-3)Gal(b1-4)GlcNAc(b1-3)Gal(b1-4)GlcNAc
Summary of the method: as §1

[14] = target: GlcNAc(a1-4)Gal(b1-4)GlcNAc(b1-3)Gal(b1-4)[Fuc(a1-3)]GlcNAc(b1-3)Gal(b1-4)[Fuc(a1-3)]GlcNAc
Summary of the method: as §1

[15] = target: GlcNAc(a1-6)Gal(b1-4)GlcNAc
Summary of the method: as §1

[16] = target: GlcNAc(b1-2)Gal(b1-3)GalNAc
Summary of the method: as §1

[17] = target: GlcNAc(b1-2)Man(a1-3)[GlcNAc(b1-2)Man(a1-6)]Man(b1-4)GlcNAc(b1-4)GlcNAc
Summary of the method: as §1

[18] = target: GlcNAc(b1-2)Man(a1-3)[GlcNAc(b1-2)Man(a1-6)]Man(b1-4)GlcNAc(b1-4)[Fuc(a1-6)]GlcNAc
Summary of the method: as §1

[19] = target: GlcNAc(b1-2)Man(a1-3)[GlcNAc(b1-4)][GlcNAc(b1-2)Man(a1-6)]Man(b1-4)GlcNAc(b1-4)GlcNAc
Summary of the method: as §1

[20] = target: GlcNAc(b1-2)Man(a1-3)[GlcNAc(b1-4)][GlcNAc(b1-2)Man(a1-6)]Man(b1-4)GlcNAc(b1-4)[Fuc(a1-6)]GlcNAc
Summary of the method: as §1

[21] = target: GlcNAc(b1-2)[GlcNAc(b1-4)]Man(a1-3)[GlcNAc(b1-2)Man(a1-6)]Man(b1-4)GlcNAc(b1-4)GlcNAc
Summary of the method: as §1

[22] = target: GlcNAc(b1-2)[GlcNAc(b1-4)]Man(a1-3)[GlcNAc(b1-4)][GlcNAc(b1-2)Man(a1-6)]Man(b1-4)GlcNAc(b1-4)GlcNAc
Summary of the method: as §1

B1: Mincle (Bos taurus) (protein)
chain: MNSSTSPASQTERRCFSFQLFSWAIAGTSILLLSACFITRCVVTYSIFQLCDEKKFQPPGDSMELSCYNDGSGSVKNCCPLKWFHFQSSCYLFSPDTMSWRASLKNCSSMGAHLVVINTQEEQEFLYYTKPRKKEFYIGLTDQVTEGQWQWVDGTPFTKSLSFWDAGEPNNLVIVEDCATIRDSSNPRQNWNDVPCFFNMFRVCEMPERKI
- glycan array binding signal (z-score) [1]: -0.207
- glycan array binding signal (z-score) [2]: 0.234
- glycan array binding signal (z-score) [3]: 1.45
- glycan array binding signal (z-score) [4]: 0.667
- glycan array binding signal (z-score) [5]: 0.4
- glycan array binding signal (z-score) [6]: -0.496
- glycan array binding signal (z-score) [7]: -0.605
- glycan array binding signal (z-score) [8]: -0.091
- glycan array binding signal (z-score) [9]: 0.256
- glycan array binding signal (z-score) [10]: 0.113
- glycan array binding signal (z-score) [11]: -0.075
- glycan array binding signal (z-score) [12]: -0.27
- glycan array binding signal (z-score) [13]: 0.104
- glycan array binding signal (z-score) [14]: 1.02
- glycan array binding signal (z-score) [15]: -0.264
- glycan array binding signal (z-score) [16]: -0.477
- glycan array binding signal (z-score) [17]: -0.423
- glycan array binding signal (z-score) [18]: 0.096
- glycan array binding signal (z-score) [19]: -0.256
- glycan array binding signal (z-score) [20]: -0.582
- glycan array binding signal (z-score) [21]: -0.208
- glycan array binding signal (z-score) [22]: -0.443
